Assay results from doi:10.1101/2020.07.06.189340.

Protein sequences, listed by entry. Tags and fused reporters are not part of them.
UniProt O14980: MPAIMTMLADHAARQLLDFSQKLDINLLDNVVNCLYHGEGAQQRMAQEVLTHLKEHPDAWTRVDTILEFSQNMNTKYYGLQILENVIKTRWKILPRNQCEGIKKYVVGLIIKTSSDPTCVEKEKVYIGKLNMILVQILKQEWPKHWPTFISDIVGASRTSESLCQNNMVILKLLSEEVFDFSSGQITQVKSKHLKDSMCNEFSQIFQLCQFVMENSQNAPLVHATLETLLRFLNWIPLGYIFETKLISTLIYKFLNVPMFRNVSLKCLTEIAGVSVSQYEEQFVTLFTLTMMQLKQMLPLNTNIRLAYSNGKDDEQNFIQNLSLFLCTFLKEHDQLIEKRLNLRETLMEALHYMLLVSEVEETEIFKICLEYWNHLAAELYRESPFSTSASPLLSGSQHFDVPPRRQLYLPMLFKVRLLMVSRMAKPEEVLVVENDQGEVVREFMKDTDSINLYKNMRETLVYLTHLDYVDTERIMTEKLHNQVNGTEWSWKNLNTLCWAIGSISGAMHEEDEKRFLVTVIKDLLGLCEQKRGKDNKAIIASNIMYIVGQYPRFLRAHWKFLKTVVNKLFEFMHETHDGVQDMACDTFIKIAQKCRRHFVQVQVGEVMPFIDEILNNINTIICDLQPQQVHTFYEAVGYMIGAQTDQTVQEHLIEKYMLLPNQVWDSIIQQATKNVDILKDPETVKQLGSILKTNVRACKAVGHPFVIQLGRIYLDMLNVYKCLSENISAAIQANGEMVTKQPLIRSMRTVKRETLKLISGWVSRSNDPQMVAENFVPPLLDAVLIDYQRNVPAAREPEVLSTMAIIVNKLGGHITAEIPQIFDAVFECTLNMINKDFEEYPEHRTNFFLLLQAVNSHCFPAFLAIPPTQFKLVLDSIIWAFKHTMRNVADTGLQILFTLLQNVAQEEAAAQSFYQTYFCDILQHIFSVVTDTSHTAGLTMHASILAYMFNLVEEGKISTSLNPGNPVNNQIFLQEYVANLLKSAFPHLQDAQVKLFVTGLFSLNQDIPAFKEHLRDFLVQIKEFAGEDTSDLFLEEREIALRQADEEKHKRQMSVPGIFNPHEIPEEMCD
UniProt P53621: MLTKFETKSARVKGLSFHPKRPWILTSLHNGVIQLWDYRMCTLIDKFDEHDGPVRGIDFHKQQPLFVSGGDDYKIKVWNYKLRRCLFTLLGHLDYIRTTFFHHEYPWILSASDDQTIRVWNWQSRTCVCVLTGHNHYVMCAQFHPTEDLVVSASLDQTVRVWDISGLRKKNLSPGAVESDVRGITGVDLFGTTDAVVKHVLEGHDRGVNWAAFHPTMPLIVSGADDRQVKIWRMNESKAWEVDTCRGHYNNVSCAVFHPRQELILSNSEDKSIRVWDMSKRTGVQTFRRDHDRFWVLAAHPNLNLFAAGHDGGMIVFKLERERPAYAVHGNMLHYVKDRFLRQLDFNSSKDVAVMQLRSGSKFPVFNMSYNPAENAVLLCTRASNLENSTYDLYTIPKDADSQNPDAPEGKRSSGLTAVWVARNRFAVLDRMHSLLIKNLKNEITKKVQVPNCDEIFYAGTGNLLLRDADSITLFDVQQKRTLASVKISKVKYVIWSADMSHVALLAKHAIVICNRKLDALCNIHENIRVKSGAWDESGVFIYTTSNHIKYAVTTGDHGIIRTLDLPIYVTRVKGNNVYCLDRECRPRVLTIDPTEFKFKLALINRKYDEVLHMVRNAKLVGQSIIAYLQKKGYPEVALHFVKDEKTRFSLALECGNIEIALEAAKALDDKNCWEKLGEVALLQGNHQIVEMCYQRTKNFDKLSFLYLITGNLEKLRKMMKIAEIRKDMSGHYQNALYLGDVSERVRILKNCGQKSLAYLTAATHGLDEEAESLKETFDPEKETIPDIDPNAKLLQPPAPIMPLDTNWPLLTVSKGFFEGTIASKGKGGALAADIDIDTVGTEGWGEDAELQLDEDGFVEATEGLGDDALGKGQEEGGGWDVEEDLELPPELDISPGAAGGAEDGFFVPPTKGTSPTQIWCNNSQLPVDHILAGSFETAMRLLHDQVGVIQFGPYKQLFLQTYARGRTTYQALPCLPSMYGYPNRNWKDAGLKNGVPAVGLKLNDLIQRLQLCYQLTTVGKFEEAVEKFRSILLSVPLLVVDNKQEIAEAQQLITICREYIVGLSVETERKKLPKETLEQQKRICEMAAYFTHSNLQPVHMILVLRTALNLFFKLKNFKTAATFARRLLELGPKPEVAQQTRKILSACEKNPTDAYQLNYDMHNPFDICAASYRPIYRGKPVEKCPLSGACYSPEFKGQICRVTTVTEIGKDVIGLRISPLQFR
UniProt Q7L576: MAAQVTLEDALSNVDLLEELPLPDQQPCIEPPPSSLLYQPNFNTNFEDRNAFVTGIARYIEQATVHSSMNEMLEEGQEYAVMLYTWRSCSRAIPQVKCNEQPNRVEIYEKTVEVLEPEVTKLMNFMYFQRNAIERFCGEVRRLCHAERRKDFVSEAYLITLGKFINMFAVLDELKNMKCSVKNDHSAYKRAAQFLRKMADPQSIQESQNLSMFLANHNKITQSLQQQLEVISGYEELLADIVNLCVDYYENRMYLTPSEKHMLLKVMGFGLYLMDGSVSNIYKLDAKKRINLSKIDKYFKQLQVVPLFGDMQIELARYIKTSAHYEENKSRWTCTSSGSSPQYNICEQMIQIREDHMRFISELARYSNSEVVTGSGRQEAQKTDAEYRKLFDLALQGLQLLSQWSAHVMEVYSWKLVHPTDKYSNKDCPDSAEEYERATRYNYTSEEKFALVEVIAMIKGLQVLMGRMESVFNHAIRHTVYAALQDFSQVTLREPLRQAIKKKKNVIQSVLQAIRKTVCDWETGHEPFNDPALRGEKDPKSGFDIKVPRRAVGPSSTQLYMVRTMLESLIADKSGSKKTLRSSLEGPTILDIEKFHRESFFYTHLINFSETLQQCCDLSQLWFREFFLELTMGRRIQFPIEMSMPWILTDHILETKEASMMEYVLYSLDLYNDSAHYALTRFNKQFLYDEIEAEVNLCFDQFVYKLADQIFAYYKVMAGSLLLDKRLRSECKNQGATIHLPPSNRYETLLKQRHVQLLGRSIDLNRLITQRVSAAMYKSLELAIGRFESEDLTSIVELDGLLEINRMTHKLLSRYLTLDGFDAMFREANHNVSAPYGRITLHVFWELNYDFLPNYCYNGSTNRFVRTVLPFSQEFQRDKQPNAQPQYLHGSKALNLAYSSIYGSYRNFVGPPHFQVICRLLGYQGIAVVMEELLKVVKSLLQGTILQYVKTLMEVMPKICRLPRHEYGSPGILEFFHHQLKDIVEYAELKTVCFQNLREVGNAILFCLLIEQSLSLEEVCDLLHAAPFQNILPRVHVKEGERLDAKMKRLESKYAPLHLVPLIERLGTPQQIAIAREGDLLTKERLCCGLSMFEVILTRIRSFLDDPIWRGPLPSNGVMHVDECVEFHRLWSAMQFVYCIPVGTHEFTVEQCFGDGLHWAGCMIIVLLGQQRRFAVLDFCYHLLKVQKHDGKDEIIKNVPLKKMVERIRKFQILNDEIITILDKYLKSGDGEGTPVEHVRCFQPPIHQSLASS
UniProt Q00610: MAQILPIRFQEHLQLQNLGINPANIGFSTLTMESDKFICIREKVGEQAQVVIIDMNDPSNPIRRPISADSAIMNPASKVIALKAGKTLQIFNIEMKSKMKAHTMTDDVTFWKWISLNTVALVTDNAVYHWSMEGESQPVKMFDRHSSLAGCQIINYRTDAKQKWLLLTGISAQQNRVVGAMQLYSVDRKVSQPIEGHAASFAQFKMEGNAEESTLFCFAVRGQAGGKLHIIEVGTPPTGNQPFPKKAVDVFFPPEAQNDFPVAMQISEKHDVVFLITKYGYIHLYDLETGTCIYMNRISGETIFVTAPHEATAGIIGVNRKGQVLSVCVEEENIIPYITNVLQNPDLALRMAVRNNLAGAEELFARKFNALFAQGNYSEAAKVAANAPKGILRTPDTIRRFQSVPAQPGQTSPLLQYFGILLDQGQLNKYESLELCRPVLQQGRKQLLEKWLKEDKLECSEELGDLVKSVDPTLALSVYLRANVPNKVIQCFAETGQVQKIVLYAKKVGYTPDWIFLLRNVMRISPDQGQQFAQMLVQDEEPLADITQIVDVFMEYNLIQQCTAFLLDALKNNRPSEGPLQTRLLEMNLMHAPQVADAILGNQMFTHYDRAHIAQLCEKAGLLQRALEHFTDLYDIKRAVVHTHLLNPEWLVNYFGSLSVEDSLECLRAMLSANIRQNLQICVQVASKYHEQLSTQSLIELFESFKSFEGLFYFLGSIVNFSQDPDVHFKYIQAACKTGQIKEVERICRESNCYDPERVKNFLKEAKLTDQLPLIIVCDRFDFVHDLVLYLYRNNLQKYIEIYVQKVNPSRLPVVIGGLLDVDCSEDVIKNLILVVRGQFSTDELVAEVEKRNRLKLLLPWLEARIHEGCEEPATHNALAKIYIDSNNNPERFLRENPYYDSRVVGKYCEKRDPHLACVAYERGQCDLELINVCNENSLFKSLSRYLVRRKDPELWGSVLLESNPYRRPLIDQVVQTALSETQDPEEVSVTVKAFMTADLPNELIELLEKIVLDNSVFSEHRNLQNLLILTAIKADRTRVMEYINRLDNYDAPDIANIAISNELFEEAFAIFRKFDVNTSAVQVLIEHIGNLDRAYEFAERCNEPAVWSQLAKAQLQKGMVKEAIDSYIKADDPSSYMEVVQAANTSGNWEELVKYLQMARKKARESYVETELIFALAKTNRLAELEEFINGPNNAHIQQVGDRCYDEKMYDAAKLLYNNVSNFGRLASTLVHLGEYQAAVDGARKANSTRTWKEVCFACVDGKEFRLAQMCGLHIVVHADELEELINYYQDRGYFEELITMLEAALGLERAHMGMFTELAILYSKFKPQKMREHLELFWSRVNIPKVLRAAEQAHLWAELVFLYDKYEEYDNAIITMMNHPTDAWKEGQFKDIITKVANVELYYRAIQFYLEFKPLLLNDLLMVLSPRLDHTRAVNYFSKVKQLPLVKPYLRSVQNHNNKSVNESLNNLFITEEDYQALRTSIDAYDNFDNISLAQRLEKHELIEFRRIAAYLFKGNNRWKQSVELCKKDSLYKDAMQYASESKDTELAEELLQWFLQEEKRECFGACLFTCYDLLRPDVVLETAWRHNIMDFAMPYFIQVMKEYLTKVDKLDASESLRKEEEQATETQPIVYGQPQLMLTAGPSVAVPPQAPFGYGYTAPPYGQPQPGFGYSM

target: T1, GFP-Rab46 Q604L (constitutively active, GTP-locked) (human) (UniProt Q9BSW2); assay: affinity purification with mass spectrometry
T1 sequence: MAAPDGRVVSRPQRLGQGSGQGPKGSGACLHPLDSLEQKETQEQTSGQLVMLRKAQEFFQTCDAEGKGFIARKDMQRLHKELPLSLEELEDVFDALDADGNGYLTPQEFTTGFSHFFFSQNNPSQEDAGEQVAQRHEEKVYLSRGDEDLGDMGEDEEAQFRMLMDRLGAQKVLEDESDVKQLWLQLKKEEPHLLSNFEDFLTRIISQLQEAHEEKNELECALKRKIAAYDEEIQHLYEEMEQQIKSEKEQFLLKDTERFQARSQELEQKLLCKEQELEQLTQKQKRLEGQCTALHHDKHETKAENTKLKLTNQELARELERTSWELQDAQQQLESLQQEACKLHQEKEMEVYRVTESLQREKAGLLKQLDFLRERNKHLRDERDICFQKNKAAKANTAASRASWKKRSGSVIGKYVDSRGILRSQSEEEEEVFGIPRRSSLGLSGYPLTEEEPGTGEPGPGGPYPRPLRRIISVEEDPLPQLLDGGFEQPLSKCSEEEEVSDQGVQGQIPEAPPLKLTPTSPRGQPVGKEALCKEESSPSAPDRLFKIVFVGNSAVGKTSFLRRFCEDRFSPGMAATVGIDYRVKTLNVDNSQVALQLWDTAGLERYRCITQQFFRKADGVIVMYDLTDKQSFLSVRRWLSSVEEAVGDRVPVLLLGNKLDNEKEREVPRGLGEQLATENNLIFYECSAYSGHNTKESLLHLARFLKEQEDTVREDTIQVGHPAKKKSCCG

| binding | Substance |
| --- | --- |
| binds | XPO1 (from UniProt O14980 1-1071) |
| binds | FLNA (from UniProt P21333 1-2647) |
| binds | COPA (from UniProt P53621) |
| binds | CYFIP1 (from UniProt Q7L576 1-1253) |
| binds | dynein heavy chain (DHC), endogenous (from UniProt Q14204 1-4646) |
| binds | CLTC (from UniProt Q00610 1-1675) |

These are yes or no findings as the source states them, for the method shown. Binding seen in cells or lysates may run through a third protein. These calls come from enrichment with a bait or labelling near it, and not all partners need be listed. Tags and fused reporters may be left off the sequences shown.
